Results taken from PubChem BioAssay AID1508600 (Functional Genomics Laboratory (NCATS/FGL), 2020).
Among all 53,000 sequences or so, about 3,700 (7%) were called active.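 How the source made its calls: active means gene knockdowns whose robust z-score for IL-1 alpha signal is at least 2 or at most -2, so actives lie on both sides; inactive means the rest.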 Some of the results follow.

Assay: Components of the Cytosolic LPS Sensing Pathway: Gene Identification via Genome-wide siRNA Screen;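 further: robust z of the log signal after scaling to non-targeting control siRNA wells of the plate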
Conditions: RAW264.7 macrophages, IL-1a HTRF, actives lie on both sides, screened at 100 nM (by protocol), cells primed 5 h with Pam3CSK4 first
In short: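 Supernatant IL-1a by HTRF from RAW264.7 cells primed with Pam3CSK4 (5 hours) and transfected with LipidA (24 hour) after 48h siRNA knockdown at 100 nM; cell viability checked with CellTiter-Glo.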

With CCUGCUCUAGAGAAGAAGUTT against Naxe as the sequence, how does the z-score read?
Its z-score is inactive: 0.879.

With CCUACAACGAACGGGAGAATT against Dpm1 as the sequence, how does the z-score read?
The z-score was inactive: 0.408.

For CUCCAUAAAAGGAAGUCUATT against Olfr1202, which z-score is on record?
The z-score was inactive: -1.31.

With GGAGCUAGCUAGAACAAGUTT against Slmap as the sequence, how does the z-score read?
The z-score was inactive: 1.58.

With GGCAAUUGUUUUUAGAGAGTT against Cenpn as the sequence, how does the z-score read?
The z-score was inactive: 0.857.

Which z-score does the source give for GGAGCUCAUGAAGAUGAAGTT against Rffl here?
Its z-score is inactive: 0.906.

For GGAAGUGAGUUUCAAAGCCTT against H1f6, which z-score is on record?
The z-score was inactive: -0.55.

Which z-score does the source give for GGGCACAUUAUGCAGAACUTT against Relt here?
The z-score was inactive: 0.0315.

Which z-score does the source give for CCGAGUGGUUAGCUACCAGTT against Ccl24 here?
Its z-score is active: 2.4.

For GGGCUUUCUGCUGAAGAGATT against Leng9, which z-score is on record?
The z-score was inactive: -1.94.

For GGUAUCAUUUACUUUGAACTT against Gtf2f2, which z-score is on record?
The z-score was inactive: -0.0825.

With CCAUCAUUUAUGAAGACCCTT against Dcaf7 as the sequence, how does the z-score read?
The z-score was inactive: -1.44.

For GGAGUUCUUUUUUUCUGUGTT against Pkd1, which z-score is on record?
Its z-score is inactive: 0.218.

With GCCCAUAGGUGCAGAUUCCTT against Fhl4 as the sequence, how does the z-score read?
Its z-score is inactive: 0.0834.

For GGACAAGAACUACAUUGAGTT against Eefsec, which z-score is on record?
Its z-score is inactive: 1.44.

Which z-score does the source give for CCAAGUCCCUUUGUGGUGUTT against Twnk here?
The z-score was inactive: -0.749.

Which z-score does the source give for GAAUGGAAGACGAAAUUUGTT against Ctla2a here?
Its z-score is inactive: 0.42.

With GGUUCUUUUGGUCUUCGUGTT against Cox16 as the sequence, how does the z-score read?
The z-score was inactive: 0.203.

For GGACCAGAAGGAGAAGAGUTT against Prg2, which z-score is on record?
The z-score was inactive: -1.77.

Which z-score does the source give for GGGAUGAGUAUGCUUAUGGTT against Sec16b here?
Its z-score is inactive: -0.116.

For GCUGAAUACAACGUGAGAUTT against Tdh, which z-score is on record?
The z-score was active: -4.05.

For GGGUUGUUGAGACUUCCACTT against Hmbs, which z-score is on record?
The z-score was active: 2.79.

Which z-score does the source give for CCUACCUUCAUUCGCUUCGTT against Cpz here?
Its z-score is active: 2.61.

For GGGAACCCAUUUUAGAAUUTT against Repin1, which z-score is on record?
Its z-score is inactive: 0.729.

For CGAUGAAGCCAAUCACUUATT against Cct5, which z-score is on record?
Its z-score is inactive: -1.46.

For CCAGUACGAACUCUUCCGUTT against Zmynd8, which z-score is on record?
The z-score was inactive: 0.105.

For GGCCUUACCAAAUGGAAGUTT against Ifih1, which z-score is on record?
Its z-score is active: 2.89.

Which z-score does the source give for GGUUCUUCUGGCUAGGCACTT against Sgk1 here?
Its z-score is inactive: -0.134.

With UUGUGAGUGCAUGUGAAAUTT against Epn1 as the sequence, how does the z-score read?
The z-score was inactive: -1.35.

With GGUGAUCAAACUGAUGGACTT against Gramd4 as the sequence, how does the z-score read?
Its z-score is inactive: 1.83.

For GGCUUCUCUGCUCUAGGCUTT against Psenen, which z-score is on record?
The z-score was inactive: -0.91.

With GGCGGAAAAGUGUGCAAUATT against Cd244a as the sequence, how does the z-score read?
Its z-score is inactive: 0.0851.

For UAGCAGUCUACAGGAAUGGTT against Olfr1411, which z-score is on record?
Its z-score is inactive: -0.138.

For CCCUCUUUAAACAGAUUGGTT against Fmo4, which z-score is on record?
The z-score was inactive: 0.0175.

Which z-score does the source give for GGAGACAACCCAGAUGAACTT against Cfap126 here?
The z-score was inactive: 1.09.

Which z-score does the source give for GGAUAACUCACAAGAGUCUTT against Zdhhc16 here?
The z-score was inactive: -0.296.

Which z-score does the source give for GCCCACUAGUCAAAAGCUUTT against Kera here?
Its z-score is inactive: -1.39.

For GGGUUCGUUUCACAGAUCCTT against Chrd, which z-score is on record?
Its z-score is inactive: 0.126.

For CGUGGCUAAACAAAGAGCUTT against Sass6, which z-score is on record?
The z-score was inactive: -0.841.

For GGCAAUUUAUAAUGUCUCUTT against Heph, which z-score is on record?
The z-score was inactive: -0.143.

For GGAGGCUGAGUAGGUAUGATT against Olfr137, which z-score is on record?
The z-score was inactive: -0.635.

For GGACAGUGACUACAAUCCATT against Zfp335, which z-score is on record?
Its z-score is inactive: -0.53.

For GCCAAUGGUGUUAACAGCATT against Slc24a4, which z-score is on record?
The z-score was inactive: -1.94.

For GGUUGUGUGCAGGAAUGGGTT against Nxn, which z-score is on record?
The z-score was inactive: -0.221.

With GGCCUUCAUCUUCAAGUACTT against Ackr3 as the sequence, how does the z-score read?
Its z-score is inactive: 1.57.

Which z-score does the source give for GGAAGAAGCUCUAUGCUGATT against Fbxo9 here?
The z-score was inactive: -0.589.

With CCUAUCCUAGCACACCAGATT against Fosl1 as the sequence, how does the z-score read?
Its z-score is inactive: -0.258.

For GGGUAGGGCAGUCUACUUATT against F2r, which z-score is on record?
The z-score was inactive: -0.407.

Which z-score does the source give for CGAGCAAUGGCAGAUGAGCTT against Mydgf here?
Its z-score is inactive: -0.188.

For GCGACAAUAUGAGUCACCUTT against Fsd1, which z-score is on record?
Its z-score is active: -2.07.

For GAAAAGAGGACAGCUUGACTT against Serf1, which z-score is on record?
Its z-score is inactive: 0.525.

For GCCCAGUCAAGACUAUUCGTT against Csnk2b, which z-score is on record?
The z-score was inactive: 1.58.

With GCAAAUACGAAAAUGAGUGTT against Bfsp1 as the sequence, how does the z-score read?
Its z-score is inactive: -0.121.

Which z-score does the source give for GGGAAGUUUCAGGAAGAAGTT against Pbx4 here?
Its z-score is inactive: -0.0399.

Which z-score does the source give for CCAAUAAAAAAUGUCUGCATT against Tent5b here?
Its z-score is inactive: -1.16.

For GGGAGAAGAUGUCCAUCAATT against Spata19, which z-score is on record?
The z-score was inactive: 1.72.

For GUGGUCUUUAUCGGCAUGATT against Slc35c1, which z-score is on record?
Its z-score is inactive: 0.287.

With CGUGAAGAUUGACGUGUUUTT against Pcyox1 as the sequence, how does the z-score read?
Its z-score is inactive: 1.06.

For GCUUGGAUUGAGCUUUACATT against Pid1, which z-score is on record?
Its z-score is active: 3.53.

For GCGUGGUGUUGACUAUGAGTT against Retsat, which z-score is on record?
Its z-score is inactive: -0.348.

For GGUGUAGAAAUAAAGUGAGTT against Mbl2, which z-score is on record?
Its z-score is inactive: -0.615.

With GGAUUCUCAUGAUUGUAAATT against Tasor2 as the sequence, how does the z-score read?
The z-score was inactive: -0.438.

With GCACUACAGACACUUUUAGTT against Gm5533 as the sequence, how does the z-score read?
The z-score was active: -2.12.

Which z-score does the source give for GGGAUGCCAUCGUGUUUCUTT against Ccl17 here?
The z-score was inactive: -0.345.

For GGCUUUUUGGCUCAAAAAUTT against Spg21, which z-score is on record?
Its z-score is inactive: -0.903.

For GCUCAUGUUGCAUGUUAAGTT against Idh3g, which z-score is on record?
The z-score was inactive: -0.0467.

For GGGACCACAAAUUUGAAAATT against Tmprss11e, which z-score is on record?
The z-score was inactive: 0.656.

Which z-score does the source give for GCAGAUCCGGUAUUUACAUTT against Ngrn here?
The z-score was inactive: -0.814.

Which z-score does the source give for GCUACUAAAUUCUGUUUUGTT against Nol4l here?
The z-score was inactive: 0.325.
